Measurements: patent publication US20030104507A1, “Method for detection of ATP” (priority 2001, published 2003)
Further values from the same series stand in other lists.

Test system: Jurkat cells
Assay: Effect of NaF on Jurkat cell luminescence
Type: cell-based
Conditions: 10.0 mM NaF, without KPO4, 50000 cells/well
Excerpt: In some cells, such as lymphoid cells (e.g., Jurkat), an increase in luminescence over time in the presence of the reagent composition solution is observed. While the underlying mechanism of this increase in luminescence is not known, it is postulated that it results from the functioning of ATP-generating enzymes in this cell. The activity of such enzymes, if left unchecked, will result in an over-estimation of ATP in a sample at the time of the assay. This experiment was designed to test the effects of sodium fluoride on luminescence when using lymphoid cells.
Jurkat cells (ATCC, CRL-1990) were grown in 5% CO2/95% air, 100% humidity at 37° C. and maintained in RPMI media (Sigma, R-8005) containing 10% FBS (Hyclone #SH30070), 1X non-essential amino acids (Hyclone SH30238) and 1 mM sodium pyruvate (Hyclone #SH30239). Cells were plated at 0, 12500, 25000, and 50000 cells/well in 100 μl of media in a 96-well microtiter luminometer plate. Quadruplicate replicates were prepared. To each of these wells was added reagent composition (reagent composition=40 mM Citrate buffer (pH 6.0), 110 mM MES buffer (pH 6.0), 0.2 mM EDTA, 0.2% Gelatin, 100 μg/ml Luciferase (LucPpe2m146, diluted from 37.8 mg/ml stock solution), 100 μM luciferin, 300 mM NaCl, 20 mM MgSO4, 0.05% Mazu DF-204, 0.6% DTAB). In addition, all but the “no KPO4” control sample contained 60 mM KPO4 buffer (pH 6.0). Various concentrations of NaF were then added to the above solution to final concentrations of 0, 1.0, 2.0, 4.0, 10.0 mM; one condition had 10.0 mM NaF but without KPO4.
Total reaction volume per well was 200 μl, consisting of 100 μl cells plus media and 100 μl reagent composition containing KPO4 and/or NaF. The light output was taken at various times on a Dynex microtiter plate luminometer at a 0.5 second read time. The resulting average rlus from quadruplicate wells and calculated signal stabilities as measured by their half-life values are reported in Table S.

In the case of [F-].[Na+] [NaF, sodium fluoride], the Average rlu (85 min) is reported as 1340.91 rlu, the Average rlu (130 min) is reported as 1258.88 rlu and the Average rlu (220 min) is reported as 889.88 rlu. The Average rlu (255 min) was 865.24 rlu and the Average rlu (285 min) was 807.41 rlu.
